# Test results published in the supplement of paper PMC8728848.
# The other results are listed elsewhere or left out.
# How the values were obtained:
# Assay in all cases: glycan array binding signal (z-score within array); higher = stronger binding
# Conditions in all cases: glycan notation: IUPAC condensed, linker removed
# [1] = target: Neu5Ac(a2-3)Gal(b1-4)GlcNAc(b1-3)Gal
# Procedure, shortened: (§1)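 The Consortium for Functional Glycomics database supplied 3228 glycan arrays, of which those lacking an available protein sequence were dropped. The binding signal, a within-array Z-score, was averaged across arrays of the same protein sequence and across linkers. Negative scores can be read as non-binding.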
# [2] = target: Neu5Ac(a2-3)Gal(b1-4)GlcNAc(b1-3)Gal(b1-3)GlcNAc
# Procedure, shortened: as §1
# [3] = target: Neu5Ac(a2-3)Gal(b1-4)GlcNAc(b1-3)Gal(b1-4)GlcNAc
# Procedure, shortened: as §1
# [4] = target: Neu5Ac(a2-3)Gal(b1-4)GlcNAc(b1-3)Gal(b1-4)GlcNAc(b1-3)Gal(b1-4)GlcNAc
# Procedure, shortened: as §1
# [5] = target: Neu5Ac(a2-3)Gal(b1-4)GlcNAc(b1-3)Gal(b1-4)[Fuc(a1-3)]GlcNAc
# Procedure, shortened: as §1
# [6] = target: Neu5Ac(a2-3)Gal(b1-4)GlcNAc(b1-3)GalNAc
# Procedure, shortened: as §1
# [7] = target: Neu5Ac(a2-3)Gal(b1-4)GlcNAc(b1-6)[Gal(b1-3)]GalNAc
# Procedure, shortened: as §1
# [8] = target: Neu5Ac(a2-3)Gal(b1-4)GlcNAc(b1-6)[Neu5Ac(a2-3)Gal(b1-3)]GalNAc
# Procedure, shortened: as §1
# [9] = target: Neu5Ac(a2-3)Gal(b1-4)GlcNAc6S
# Procedure, shortened: as §1
# [10] = target: Neu5Ac(a2-3)Gal(b1-4)[Fuc(a1-3)]GlcNAc
# Procedure, shortened: as §1
# [11] = target: Neu5Ac(a2-3)Gal(b1-4)[Fuc(a1-3)]GlcNAc(b1-3)Gal
# Procedure, shortened: as §1
# [12] = target: Neu5Ac(a2-3)Gal(b1-4)[Fuc(a1-3)]GlcNAc(b1-3)Gal(b1-4)GlcNAc
# Procedure, shortened: as §1
# [13] = target: Neu5Ac(a2-3)Gal(b1-4)[Fuc(a1-3)]GlcNAc(b1-3)Gal(b1-4)[Fuc(a1-3)]GlcNAc(b1-3)Gal(b1-4)[Fuc(a1-3)]GlcNAc
# Procedure, shortened: as §1
# [14] = target: Neu5Ac(a2-3)Gal(b1-4)[Fuc(a1-3)]GlcNAc(b1-3)GalNAc
# Procedure, shortened: as §1
# [15] = target: Neu5Ac(a2-3)Gal(b1-4)[Fuc(a1-3)]GlcNAc(b1-6)[Gal(b1-3)]GalNAc
# Procedure, shortened: as §1
# [16] = target: Neu5Ac(a2-3)Gal(b1-4)[Fuc(a1-3)]GlcNAc6S
# Procedure, shortened: as §1
# [17] = target: Neu5Ac(a2-3)Gal6S(b1-4)GlcNAc
# Procedure, shortened: as §1
# [18] = target: Neu5Ac(a2-3)Gal6S(b1-4)[Fuc(a1-3)]GlcNAc
# Procedure, shortened: as §1
# Neu5Ac(a2-3)GalNAc = target: Neu5Ac(a2-3)GalNAc
# Procedure, shortened: as §1
# [19] = target: Neu5Ac(a2-3)GalNAc(b1-4)GlcNAc
# Procedure, shortened: as §1
# [20] = target: Neu5Ac(a2-3)[GalNAc(b1-4)]Gal(b1-4)Glc
# Procedure, shortened: as §1
# [21] = target: Neu5Ac(a2-3)[GalNAc(b1-4)]Gal(b1-4)GlcNAc
# Procedure, shortened: as §1
# [22] = target: Neu5Ac(a2-3)[GalNAc(b1-4)]Gal(b1-4)GlcNAc(b1-3)GalNAc
# Procedure, shortened: as §1
# [23] = target: Neu5Ac(a2-3)[Neu5Ac(a2-6)]GalNAc
# Procedure, shortened: as §1
# Neu5Ac(a2-6)Gal = target: Neu5Ac(a2-6)Gal
# Procedure, shortened: as §1
# [24] = target: Neu5Ac(a2-6)Gal(b1-3)GlcNAc(b1-3)[Gal(b1-4)GlcNAc(b1-6)]Gal(b1-4)Glc
# Procedure, shortened: as §1
# Neu5Ac(a2-6)Gal(b1-4)Glc = target: Neu5Ac(a2-6)Gal(b1-4)Glc
# Procedure, shortened: as §1
# [25] = target: Neu5Ac(a2-6)Gal(b1-4)GlcNAc
# Procedure, shortened: as §1
# [26] = target: Neu5Ac(a2-6)Gal(b1-4)GlcNAc(b1-2)Man(a1-3)Man(b1-4)GlcNAc(b1-4)GlcNAc
# Procedure, shortened: as §1
# [27] = target: Neu5Ac(a2-6)Gal(b1-4)GlcNAc(b1-2)Man(a1-3)[Gal(b1-4)GlcNAc(b1-2)Man(a1-6)]Man(b1-4)GlcNAc(b1-4)GlcNAc
# Procedure, shortened: as §1
binder,measurement,setting,value
"RetS (Pseudomonas aeruginosa), Q9HUV7 (protein) MVRLRIAIGLLVSFLLLLLGPMSPAVADDAGVSSVPLQTTATTPSANQNWRLLRDESAQLRIADVLQRKEQFRPLAKRSFIFPASPQAVWLQVQLPAQKVPSWLWIFAPRVQYLDYYLVQDGQLVRDQHTGESRPFQERPLPSRSYLFSLPVDGKPMTLYVRMTSNHPLMAWFDQIDEAGLVGLEKPAYAFGMLLGGMLLLLMYNLIRFAYSRSASSLWLAAVHAALAVCAAANLGLVAFWLPGLKFNQSLTADLGALGAAVSLLWFACSFFRGTAESRLNRLLQGEALLILAVGAIIAFTQQLWFSWLIYLLVILSSLSVPLIAAWHWYRGYQPARLIVAGMIVFNAGFMVFLPVLFGTKQLDPGWLVLGVFSFATLAGLVLSVSLTERQRLIQQLNLQQRTSEAAHTAELQTKAEFLAKISHEIRTPMNGVLGMTELLLGTPLSAKQRDYVQTIHSAGNELLTLINEILDISKLESGQIELDEVQFDLNALIEDCLDIFRVKAEQQRIELISFTQPQVPRVIGGDPTRLRQVVLSLLDNAFKQTEEGEILLVVALDDQGETPRLRIAVQDSGHPFDAKEREALLTAELHSGDFLSASKLGSHLGLIIARQLVRLMGGEFGIQSGSSQGTTLSLTLPLDPQQLENPTADLDGPLQGARLLVVDDNETCRKVLVQQCSGWGLNVSAVSSGKEALAQLRTKAHLREYFDVVLLDQDMPGMTGMQLAAKIKEDPNLNHDILLIMLTGISNAPSKIIARNAGIKRILAKPVAGYTLKATLADELAQRGVSGVTNYLQPAKEAQAPSLPSDFRILVAEDNSISTKVIRGMLNKLNLQPDTASNGQEALSAMKATQYDLVLMDCEMPVLDGFSATEQLRAWEAHEQRPHTPVVALTAHILSEHKERARLVGMDGHMAKPVELSQLRELIAYWVGERDRRRQGDALPS",glycan array binding signal (z-score),[1],0.901
same,glycan array binding signal (z-score),[2],1.12
same,glycan array binding signal (z-score),[3],-0.976
same,glycan array binding signal (z-score),[4],0.517
same,glycan array binding signal (z-score),[5],-0.543
same,glycan array binding signal (z-score),[6],-0.324
same,glycan array binding signal (z-score),[7],-0.343
same,glycan array binding signal (z-score),[8],-0.192
same,glycan array binding signal (z-score),[9],-0.058
same,glycan array binding signal (z-score),[10],0.567
same,glycan array binding signal (z-score),[11],-0.075
same,glycan array binding signal (z-score),[12],1.76
same,glycan array binding signal (z-score),[13],-0.029
same,glycan array binding signal (z-score),[14],3.56
same,glycan array binding signal (z-score),[15],-0.268
same,glycan array binding signal (z-score),[16],0.709
same,glycan array binding signal (z-score),[17],0.813
same,glycan array binding signal (z-score),[18],-0.246
same,glycan array binding signal (z-score),Neu5Ac(a2-3)GalNAc,-0.712
same,glycan array binding signal (z-score),[19],-0.684
same,glycan array binding signal (z-score),[20],0.059
same,glycan array binding signal (z-score),[21],0.328
same,glycan array binding signal (z-score),[22],-0.812
same,glycan array binding signal (z-score),[23],0.446
same,glycan array binding signal (z-score),Neu5Ac(a2-6)Gal,-0.536
same,glycan array binding signal (z-score),[24],0.956
same,glycan array binding signal (z-score),Neu5Ac(a2-6)Gal(b1-4)Glc,0.109
same,glycan array binding signal (z-score),[25],-0.56
same,glycan array binding signal (z-score),[26],-0.075
same,glycan array binding signal (z-score),[27],0.76

# A second format for part of the listing above.
binder | measurement | setting | value
RetS (Pseudomonas aeruginosa), Q9HUV7 (protein) MVRLRIAIGLLVSFLLLLLGPMSPAVADDAGVSSVPLQTTATTPSANQNWRLLRDESAQLRIADVLQRKEQFRPLAKRSFIFPASPQAVWLQVQLPAQKVPSWLWIFAPRVQYLDYYLVQDGQLVRDQHTGESRPFQERPLPSRSYLFSLPVDGKPMTLYVRMTSNHPLMAWFDQIDEAGLVGLEKPAYAFGMLLGGMLLLLMYNLIRFAYSRSASSLWLAAVHAALAVCAAANLGLVAFWLPGLKFNQSLTADLGALGAAVSLLWFACSFFRGTAESRLNRLLQGEALLILAVGAIIAFTQQLWFSWLIYLLVILSSLSVPLIAAWHWYRGYQPARLIVAGMIVFNAGFMVFLPVLFGTKQLDPGWLVLGVFSFATLAGLVLSVSLTERQRLIQQLNLQQRTSEAAHTAELQTKAEFLAKISHEIRTPMNGVLGMTELLLGTPLSAKQRDYVQTIHSAGNELLTLINEILDISKLESGQIELDEVQFDLNALIEDCLDIFRVKAEQQRIELISFTQPQVPRVIGGDPTRLRQVVLSLLDNAFKQTEEGEILLVVALDDQGETPRLRIAVQDSGHPFDAKEREALLTAELHSGDFLSASKLGSHLGLIIARQLVRLMGGEFGIQSGSSQGTTLSLTLPLDPQQLENPTADLDGPLQGARLLVVDDNETCRKVLVQQCSGWGLNVSAVSSGKEALAQLRTKAHLREYFDVVLLDQDMPGMTGMQLAAKIKEDPNLNHDILLIMLTGISNAPSKIIARNAGIKRILAKPVAGYTLKATLADELAQRGVSGVTNYLQPAKEAQAPSLPSDFRILVAEDNSISTKVIRGMLNKLNLQPDTASNGQEALSAMKATQYDLVLMDCEMPVLDGFSATEQLRAWEAHEQRPHTPVVALTAHILSEHKERARLVGMDGHMAKPVELSQLRELIAYWVGERDRRRQGDALPS | glycan array binding signal (z-score) | [18] | -0.246
same | glycan array binding signal (z-score) | Neu5Ac(a2-6)Gal(b1-4)Glc | 0.109
